# Source: PMC4890593
# Chains of the proteins cited; added tags and fusions are not shown.
# UniProt P33176: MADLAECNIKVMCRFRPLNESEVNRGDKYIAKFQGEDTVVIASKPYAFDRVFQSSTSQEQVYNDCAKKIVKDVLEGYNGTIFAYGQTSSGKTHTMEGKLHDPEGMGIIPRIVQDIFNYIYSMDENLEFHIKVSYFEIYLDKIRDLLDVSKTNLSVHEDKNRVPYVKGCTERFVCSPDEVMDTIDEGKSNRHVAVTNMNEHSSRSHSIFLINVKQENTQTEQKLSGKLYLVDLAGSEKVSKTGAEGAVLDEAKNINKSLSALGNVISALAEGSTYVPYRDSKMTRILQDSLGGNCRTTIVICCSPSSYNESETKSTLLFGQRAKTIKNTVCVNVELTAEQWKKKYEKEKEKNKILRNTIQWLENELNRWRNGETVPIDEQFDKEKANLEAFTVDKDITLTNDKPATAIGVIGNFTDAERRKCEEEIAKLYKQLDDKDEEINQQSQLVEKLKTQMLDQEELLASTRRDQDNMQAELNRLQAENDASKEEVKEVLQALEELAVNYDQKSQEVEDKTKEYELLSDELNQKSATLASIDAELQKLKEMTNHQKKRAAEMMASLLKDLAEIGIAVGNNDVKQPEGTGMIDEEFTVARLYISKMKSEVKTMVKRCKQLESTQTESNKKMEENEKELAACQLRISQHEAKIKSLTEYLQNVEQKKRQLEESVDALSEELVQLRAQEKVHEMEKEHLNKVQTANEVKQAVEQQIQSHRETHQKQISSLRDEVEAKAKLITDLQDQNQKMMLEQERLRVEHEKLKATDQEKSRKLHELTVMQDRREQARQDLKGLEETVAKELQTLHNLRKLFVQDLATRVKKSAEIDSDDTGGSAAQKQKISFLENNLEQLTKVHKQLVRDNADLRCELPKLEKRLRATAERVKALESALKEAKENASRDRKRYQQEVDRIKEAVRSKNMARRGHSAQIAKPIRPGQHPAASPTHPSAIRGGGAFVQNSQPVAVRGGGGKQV
# UniProt Q9BSJ2: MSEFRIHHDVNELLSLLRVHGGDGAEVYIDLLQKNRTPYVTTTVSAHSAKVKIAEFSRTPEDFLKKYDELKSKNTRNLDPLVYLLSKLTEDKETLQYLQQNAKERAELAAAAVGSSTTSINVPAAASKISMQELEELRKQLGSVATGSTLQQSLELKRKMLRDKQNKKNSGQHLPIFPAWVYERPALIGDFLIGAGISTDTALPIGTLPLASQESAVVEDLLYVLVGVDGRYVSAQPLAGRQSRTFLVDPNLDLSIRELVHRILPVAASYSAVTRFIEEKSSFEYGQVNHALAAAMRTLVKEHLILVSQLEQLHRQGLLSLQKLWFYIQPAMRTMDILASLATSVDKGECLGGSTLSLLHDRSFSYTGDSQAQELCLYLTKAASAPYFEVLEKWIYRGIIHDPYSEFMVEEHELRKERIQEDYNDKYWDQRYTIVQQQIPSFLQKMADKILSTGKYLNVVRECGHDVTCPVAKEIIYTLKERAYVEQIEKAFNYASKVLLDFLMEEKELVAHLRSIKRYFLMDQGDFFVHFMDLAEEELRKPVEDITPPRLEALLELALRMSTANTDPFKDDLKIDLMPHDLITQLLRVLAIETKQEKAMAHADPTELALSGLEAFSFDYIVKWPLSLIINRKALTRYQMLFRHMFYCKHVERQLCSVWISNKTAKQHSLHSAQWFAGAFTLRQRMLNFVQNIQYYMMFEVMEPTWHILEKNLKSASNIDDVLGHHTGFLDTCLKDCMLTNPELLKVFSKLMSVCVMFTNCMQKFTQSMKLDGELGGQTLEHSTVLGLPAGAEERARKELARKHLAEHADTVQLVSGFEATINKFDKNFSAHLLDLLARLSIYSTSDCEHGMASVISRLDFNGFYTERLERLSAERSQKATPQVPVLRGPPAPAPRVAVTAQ
# UniProt Q9H0B6: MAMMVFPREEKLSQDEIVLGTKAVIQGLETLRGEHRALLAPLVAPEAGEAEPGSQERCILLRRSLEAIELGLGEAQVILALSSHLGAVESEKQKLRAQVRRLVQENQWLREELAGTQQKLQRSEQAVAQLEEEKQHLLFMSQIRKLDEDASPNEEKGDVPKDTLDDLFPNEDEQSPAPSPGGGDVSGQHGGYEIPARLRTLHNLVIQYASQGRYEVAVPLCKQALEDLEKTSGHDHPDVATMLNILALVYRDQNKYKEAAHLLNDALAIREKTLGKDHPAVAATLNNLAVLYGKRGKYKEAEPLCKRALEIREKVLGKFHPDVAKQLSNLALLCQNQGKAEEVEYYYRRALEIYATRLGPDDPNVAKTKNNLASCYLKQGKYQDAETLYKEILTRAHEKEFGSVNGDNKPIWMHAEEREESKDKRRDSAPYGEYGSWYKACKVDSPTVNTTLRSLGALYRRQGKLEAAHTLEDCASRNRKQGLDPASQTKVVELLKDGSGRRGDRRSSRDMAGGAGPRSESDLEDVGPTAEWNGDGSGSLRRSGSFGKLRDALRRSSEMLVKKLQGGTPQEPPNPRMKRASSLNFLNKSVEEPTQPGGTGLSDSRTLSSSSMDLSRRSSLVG
# These are yes or no findings as the source states them, for the method shown. Binding seen in cells or lysates may run through a third protein. Here binding means that the protein was enriched with, or labelled near, the bait; the list need not be complete. Tags and fused reporters may be left off the sequences shown.
# Biological target: T1, GST-14-3-3γ (UniProt P61981)
# T1 sequence: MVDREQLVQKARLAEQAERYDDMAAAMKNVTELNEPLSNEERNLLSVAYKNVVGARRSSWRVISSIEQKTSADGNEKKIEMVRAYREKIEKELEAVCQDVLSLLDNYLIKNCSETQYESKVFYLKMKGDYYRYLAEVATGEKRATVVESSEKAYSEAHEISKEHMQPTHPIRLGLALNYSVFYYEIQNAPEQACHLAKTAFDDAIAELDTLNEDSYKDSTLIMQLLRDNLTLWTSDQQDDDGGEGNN
# Experiment: affinity purification with mass spectrometry; GST-14-3-3γ as bait on lysates of 14-3-3γ-knockdown and vector-control cells; bands of differential intensity cut from a 6-12% gradient SDS-PAGE gel; MALDI-TOF/TOF; only the target purified
row,Substance,binding
1,KIF5B (from UniProt P33176 1-963),binds
2,GCP2 (from UniProt Q9BSJ2 1-902),binds
3,KLC2 (from UniProt Q9H0B6 1-622),binds
